# Primary screen of a compound library

Results are given as percent effect.
The record does not define 0% and 100%; most values in the screen are far below 50% and negative numbers occur (in some assays of this library far below -100).
The compounds are a random part of those screened.
Two or more numbers in one place are separate tests of the same structure; such repeats can differ widely.

Mtb cholesterol medium: 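Growth of Mycobacterium tuberculosis over 4 days (cholesterol / DPPC medium with tyloxapol); the read-out is not stated. Concentration: 50 µM. Higher reads as more growth inhibition (inferred: compounds with an IC50 in retests scored well above the rest). About 69,000 compounds were tested under these conditions; 0.54% (about 370) showed 50% or more at least once.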
Mtb glucose medium: 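Growth of Mycobacterium tuberculosis over 3 days (7H9 medium with glucose and tyloxapol); the read-out is not stated. Tested at 50 µM. Higher reads as more growth inhibition (inferred: compounds with an IC50 in retests scored well above the rest). Of about 69,000 compounds tested this way, about 760 (1.1%) reached 50% or more in at least one test.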

COCCC(=O)NCC(O)c1c(F)cccc1F (stereo not shown) gave Mtb cholesterol medium: 3.761%; Mtb glucose medium: 7.197%. Cc1ccccc1-n1cc(CNC(=O)CC2C(=O)NCCN2C)cn1 (stereo not shown) gave Mtb cholesterol medium: 6.758%; Mtb glucose medium: 25.28%. With Cc1ccc(C(=O)N2CCOCC2C(N)=O)c(F)c1 (stereo not shown) the screen gave Mtb cholesterol medium: 7.734%; Mtb glucose medium: 0.2068%. For CCOC1CC2(CCN(c3cnccn3)CC2)c2ccccc21 (stereo not shown) the result was Mtb cholesterol medium: -7.548%; Mtb glucose medium: 15.77% & 4.961%. CCc1nc(C)c(C(C)N(C)CCc2ccccn2)s1 (stereo not shown) read Mtb cholesterol medium: -16.69%; Mtb glucose medium: -27.96% & -8.409%.

Cc1c(C(=O)NC2(C#N)CCSC2)cnn1-c1ccccc1Cl (stereo not shown) gave Mtb cholesterol medium: 23.53%; Mtb glucose medium: 38.24%. CCOCC(O)CN1CCN(C(=O)c2ccc(N(C)C)nc2)CC1 (stereo not shown) gave Mtb cholesterol medium: -5.548%; Mtb glucose medium: 9.376% & -8.004%. O=C(NCCO)Nc1c(F)cc(F)cc1-c1ccccc1 gave Mtb cholesterol medium: -11.4%; Mtb glucose medium: 3.894%. For Cc1cc(CN2CCCC2c2c(C)nn(C)c2Cl)no1 (stereo not shown) the result was Mtb cholesterol medium: -2.909%; Mtb glucose medium: 1.018%. Cc1nsc(C(=O)N2CCc3ccccc3C2)n1 gave Mtb cholesterol medium: -0.3976%; Mtb glucose medium: 20.21%.

For NC(=O)c1cnc(NC2CC2)nc1CCNC(=O)CC1CCCC1 the result was Mtb cholesterol medium: -2.032%; Mtb glucose medium: 5.156%. Result for Cc1noc(CN(C)CC2CCN(CCO)CC2)n1 was Mtb cholesterol medium: -17.31%; Mtb glucose medium: -9.211% & -30.81%. For CCCc1nnc(N2CCN(c3ccccc3F)CC2)o1 the result was Mtb cholesterol medium: 26.72% & 10.21%; Mtb glucose medium: 14.25%. For O=C(O)C(F)(F)F.O=C(O)C(F)(F)F.[H][C@]12CN(Cc3ccncc3)C(=O)[C@@]1([H])CN(C1CCOCC1)C2 the result was Mtb cholesterol medium: 4.714% & -5.05%; Mtb glucose medium: -1.789% & -4.313%. Result for CS(=O)(=O)N1CCN(C(=O)c2cccc(Cl)c2)CC2(CNC(=O)C2)C1 (stereo not shown) was Mtb cholesterol medium: -8.955%; Mtb glucose medium: 18.24%.

CC(C)CCC(=O)N1CCN(c2ncnc3nc(N)ccc23)CC1 gave Mtb cholesterol medium: 6.396%; Mtb glucose medium: 3.255% & 9.431%. With COCCNC(=O)c1nc(-c2ccc3cc[nH]c3c2)no1 the screen gave Mtb cholesterol medium: 0.6179%; Mtb glucose medium: 1.63%. For [H][C@@]12COC[C@H](C(=O)N3CCCC3)[C@]1([H])CN(c1ccncn1)C2 the result was Mtb cholesterol medium: -17.7%; Mtb glucose medium: 4.381% & 2.705%. For CCn1nc(C)c2nnn(CC(=O)Nc3ccccc3F)c(=O)c21 the result was Mtb cholesterol medium: -3.785%; Mtb glucose medium: 0.9368%. Result for Cc1cnn(CCNCC(=O)NCc2ccccc2)c1 was Mtb cholesterol medium: 8.556%; Mtb glucose medium: 19.3%.

For Cc1ncsc1CN1CCn2nc(CCC(=O)N3CCCC3)cc2C1 the result was Mtb cholesterol medium: -10.56%; Mtb glucose medium: -15.89%. For Cc1csc(N2CCN(C(=O)CCn3cccn3)CC2)n1 the result was Mtb cholesterol medium: 20.45%; Mtb glucose medium: 9.837%. With Cc1ccc(C2CN(Cc3cnc(-c4ccccn4)s3)CCO2)o1 (stereo not shown) the screen gave Mtb cholesterol medium: 35.9%; Mtb glucose medium: 27.54%. CCN1Cc2ccccc2CC2(CCN(C)CC2)C1=O gave Mtb cholesterol medium: 2.313%; Mtb glucose medium: 2.699%. Result for O=C(NCCN1CCCCC1)c1scnc1Cl was Mtb cholesterol medium: -16.41%; Mtb glucose medium: -1.896%.

For O=C(NC[C@@H]1CCCO1)c1ccc(S(=O)(=O)N[C@@H]2CCNC2)cc1 the result was Mtb cholesterol medium: -6.457%; Mtb glucose medium: -6.486%. With Cc1nc(C2CCCN(C(=O)CN3CCCC3=O)C2)sc1C (stereo not shown) the screen gave Mtb cholesterol medium: -14.12% & -5.079%; Mtb glucose medium: -18.34%. Result for CC(SCc1cc(Br)cc2cccnc12)C(N)=O (stereo not shown) was Mtb cholesterol medium: 22.99%; Mtb glucose medium: 22.66%. CN(C)C(CNC(=O)c1cc2c([nH]c1=O)CCCC2=O)c1ccsc1 (stereo not shown) read Mtb cholesterol medium: 12.96%; Mtb glucose medium: 18.93%. CC(C)C(=O)N1CCCC(Cc2cccnc2)C1 (stereo not shown) read Mtb cholesterol medium: -2.024% & -6.73%; Mtb glucose medium: -8.793%.

Data taken from ChEMBL document CHEMBL3988442, “University of Dundee, Small-Polar-MMV Screening Library” (2021).